# Source: PubChem BioAssay AID248 (DTP/NCI, 2004)
# The list shows only some results of the screen, not a fair sample: it is rich in T/C values a quarter to a half above the control, in often repeated tests (any T/C) and in doses without a T/C. Other doses and runs of a compound stand elsewhere. T/C is the treated group as % of the vehicle group. Some entries give survivors of the animals treated and no T/C: the source holds a T/C of zero for them, seemingly a mark for toxic or unscored doses. Some doses without a T/C left all or most animals alive at the check, yet need not have been tolerated: the source hardly ever lists a survival T/C far under the control, and the zero likely stands for such cases as well. Counts of survivors are from the toxicity check (mostly the fifth day) where no day follows; animals may have died later. Schedules are NCI's codes, read here as Q, the interval in days (D) or hours (H), X, the number of doses. Some schedule codes hold Z or #, which are not explained here. Some entries hold several experiments; the results are listed from low to high. Where survival is the endpoint, the PubChem record calls one and a half times the control and up active, and a quarter to a half above the control has no call in these data; cut-offs in other NCI protocols can differ.
# System: L1210 leukemia ip in BDF1 mice, survival T/C
# Assay: NCI In Vivo Anticancer Drug Screen. Data for tumor model L1210 Leukemia (intraperitoneal) in B6D2F1 (BDF1) mice
# Settings: T/C endpoint: mean survival time, higher T/C = longer survival
# [1] = dose: 200.0 mg/kg/injection, schedule: Q04DX003 (ip), vehicle: saline with Tween-80
# [2] = dose: 400.0 mg/kg/injection, schedule: Q04DX003 (ip), vehicle: saline with Tween-80
# [3] = dose: 100.0 mg/kg/injection, schedule: Q01DX009 (ip), vehicle: saline with Tween-80
# [4] = dose: 25.0 mg/kg/injection, schedule: Q01DX009 (ip), vehicle: saline with Tween-80
# [5] = dose: 200.0 mg/kg/injection, schedule: Q04DX003 (ip), vehicle: Klucel (hydroxypropylcellulose) (HPC)
# [6] = dose: 400.0 mg/kg/injection, schedule: Q04DX003 (ip), vehicle: Klucel (hydroxypropylcellulose) (HPC)
# [7] = dose: 200.0 mg/kg/injection, schedule: Q01DX009 (ip), vehicle: saline with Tween-80
# [8] = dose: 400.0 mg/kg/injection, schedule: Q01DX009 (ip), vehicle: saline with Tween-80
# [9] = dose: 100.0 mg/kg/injection, schedule: Q04DX003 (ip), vehicle: Klucel (hydroxypropylcellulose) (HPC)
# [10] = dose: 200.0 mg/kg/injection, schedule: Q01DX001 (ip), vehicle: saline
# [11] = dose: 400.0 mg/kg/injection, schedule: Q01DX009 (ip), vehicle: Klucel (hydroxypropylcellulose) (HPC)
# [12] = dose: 400.0 mg/kg/injection, schedule: Q01DX001 (ip), vehicle: saline
# [13] = dose: 100.0 mg/kg/injection, schedule: Q04DX002 (ip), vehicle: Klucel (hydroxypropylcellulose) (HPC)
smiles,measurement,setting,value
CCSc1ncc(Br)c(Sc2nc(N)nc3nc[nH]c23)n1,T/C,"dose: 3.0 mg/kg/injection, schedule: Q01DX Z (ip), vehicle: carboxymethylcellulose (CMC)",131 % of control
same,T/C,"dose: 6.0 mg/kg/injection, schedule: Q01DX Z (ip), vehicle: carboxymethylcellulose (CMC)",133 % of control
same,T/C,"dose: 50.0 mg/kg/injection, schedule: Q01DX001 (ip), vehicle: carboxymethylcellulose (CMC)",126 % of control
same,survivor count,"dose: 50.0 mg/kg/injection, schedule: Q01DX Z (ip), vehicle: methylcellulose (MC)",3 of 6
same,T/C,"dose: 100.0 mg/kg/injection, schedule: Q01DX001 (ip), vehicle: carboxymethylcellulose (CMC)",139 % of control
same,survivor count,"dose: 100.0 mg/kg/injection, schedule: Q01DX Z (ip), vehicle: methylcellulose (MC)",6 of 6
same,survivor count,"dose: 200.0 mg/kg/injection, schedule: Q01DX Z (ip), vehicle: methylcellulose (MC)",3 of 6
CCC(C)C#N (centres undefined),survivor count,"dose: 100.0 mg/kg/injection, schedule: Q04DX003 (ip), vehicle: saline with Tween-80",0 of 6
same,survivor count,[1],0 of 6
same,survivor count,[2],0 of 6
O=S(=O)(F)c1cccc(C[P+](c2ccccc2)(c2ccccc2)c2ccccc2)c1,survivor count,[3],1 of 6
same,survivor count,"dose: 200.0 mg/kg/injection, schedule: Q04DX003 (ip), vehicle: acetone",6 of 6
same,survivor count,"dose: 400.0 mg/kg/injection, schedule: Q04DX003 (ip), vehicle: acetone",6 of 6
O=[n+]1ccn2cc3ccccc3cc2c1,survivor count,[4],2 of 6
same,survivor count,"dose: 50.0 mg/kg/injection, schedule: Q01DX009 (ip), vehicle: saline with Tween-80",3 of 6
O=C(COc1ccc(Cl)c(Cl)c1)NCc1cc[n+](Cc2ccc(S(=O)(=O)F)cc2)cc1,survivor count,"dose: 400.0 mg/kg/injection, schedule: Q01DX001 (ip), vehicle: Klucel (hydroxypropylcellulose) (HPC)",0 of 6
NC(N)=NC(N)=Nc1ccc(Cl)cc1,survivor count,[5],1 of 6
same,survivor count,[6],0 of 6
C[As](C)[Se]CC1OC(O)C(O)C(O)C1O (centres undefined),survivor count,[3],6 of 6
same,survivor count,[7],0 of 6
same,survivor count,[8],0 of 6
Cc1ccc(NC(=S)NC(Cc2ccccc2)c2ccccc2)cc1 (centres undefined),survivor count,[9],6 of 6
O=C(Nc1ccc(Cl)cc1)c1cc([N+](=O)[O-])ccc1O,T/C,"dose: 15.2 mg/kg/injection, schedule: Q02DX010 (ip), vehicle: carboxymethylcellulose (CMC)",143 % of control
CC(C)(C)C1CCC(=O)CC1,survivor count,"dose: 200.0 mg/kg/injection, schedule: Q04DX002 (ip), vehicle: saline",0 of 3
same,survivor count,"dose: 400.0 mg/kg/injection, schedule: Q04DX002 (ip), vehicle: saline",0 of 3
c1coc(-c2ncc3cnccn23)c1,survivor count,"dose: 200.0 mg/kg/injection, schedule: Q01DX005 (ip), vehicle: saline",0 of 4
same,survivor count,"dose: 400.0 mg/kg/injection, schedule: Q01DX005 (ip), vehicle: saline",0 of 4
C(=N\N=C\c1ccco1)/c1ccco1,survivor count,"dose: 200.0 mg/kg/injection, schedule: Q01DX001 (ip), vehicle: saline with Tween-80",2 of 6
same,survivor count,"dose: 400.0 mg/kg/injection, schedule: Q01DX001 (ip), vehicle: saline with Tween-80",0 of 3 and 0 of 6
C/C(=N/NC(=O)c1ccccc1)c1ccc(Cl)cc1Cl,survivor count,"dose: 400.0 mg/kg/injection, schedule: Q04DX003 (ip), vehicle: other",1 of 6
CC1(C(=O)O)OCCO1,survivor count,[8],3 of 6
CCCCCCCCCCCCCCCCCC[n+]1cccc(C(=O)N2CCOCC2)c1,survivor count,[5],6 of 6
same,survivor count,[6],0 of 6
C[C@@H](N)[C@@H](O)c1ccccc1,survivor count,"dose: 120.0 mg/kg/injection, schedule: Q01DX Z (oral), vehicle: saline",3 of 6
same,survivor count,"dose: 240.0 mg/kg/injection, schedule: Q01DX Z (oral), vehicle: saline",0 of 6
C[As](C)Sc1ncccn1,survivor count,"dose: 25.0 mg/kg/injection, schedule: Q01DX009 (ip), vehicle: Klucel (hydroxypropylcellulose) (HPC)",0 of 6
same,survivor count,"dose: 50.0 mg/kg/injection, schedule: Q04DX003 (ip), vehicle: Klucel (hydroxypropylcellulose) (HPC)",1 of 6
same,survivor count,[9],4 of 6
same,survivor count,[5],1 of 6
same,survivor count,[6],0 of 6
O=S(=O)(Cc1cccc(C(F)(F)F)c1)c1ccccc1-n1cccc1,survivor count,[9],5 of 6
CS(=O)(=O)OCCN(CCOS(C)(=O)=O)c1ccc(/C=N/Nc2ccc([N+](=O)[O-])cc2[N+](=O)[O-])cc1,survivor count,[10],6 of 6
C=C(C)C1CC=C(C)CC1 (centres undefined),survivor count,"dose: 200.0 mg/kg/injection, schedule: Q01DX009 (ip), vehicle: saline",0 of 6
same,survivor count,"dose: 400.0 mg/kg/injection, schedule: Q01DX009 (ip), vehicle: saline",2 of 6
CC(=O)NC1CCC(CC2CCCCC2)CC1 (centres undefined),survivor count,[11],0 of 6
NC(=S)Nc1ccccn1,survivor count,[1],3 of 6
same,survivor count,[2],2 of 6
COc1ccc(C(C)C(C)=O)cc1 (centres undefined),survivor count,[3],3 of 3
same,survivor count,[7],3 of 3
Nc1ccc([I+]c2ccccc2)cc1,survivor count,[10],0 of 4
same,survivor count,[12],0 of 4
CC(=O)OC1CCC2(C)C(=CC=C3C2CCC2(C)C3CC(OC(C)=O)C2C(C)C2CCC(C)CN2C(C)=O)C1 (centres undefined),survivor count,[7],3 of 3
Nc1c2ccccc2c[n+]2ccccc12,T/C,"dose: 25.0 mg/kg/injection, schedule: Q01DX009 (ip), vehicle: saline",134 % of control
C[N+]1=C(/C=C/c2ccc(O)c3ncccc23)C(C)(C)c2ccccc21,survivor count,"dose: 120.0 mg/kg/injection, schedule: Q01DX009 (ip), vehicle: saline",4 of 6
same,survivor count,[10],1 of 4
same,survivor count,"dose: 240.0 mg/kg/injection, schedule: Q01DX009 (ip), vehicle: saline",0 of 6
same,survivor count,[12],1 of 4
O=C(/C=C/c1ccccc1)c1ccc(O)cc1O,survivor count,[12],2 of 4
C1=NN=C2C=C3CCc4ccccc4C3CC12 (centres undefined),survivor count,"dose: 400.0 mg/kg/injection, schedule: Q01DX001 (ip), vehicle: acetone",0 of 6
NC(=O)c1ccc(Cl)c([N+](=O)[O-])c1,survivor count,[6],0 of 6
CCN(CC)CCNc1cc(C)nc(/N=C(\N)Nc2ccc(OCc3ccccc3)cc2)n1,survivor count,[4],3 of 6
CCC1=C(CC2NCCc3ccccc32)CC2c3cc(OC)c(OC)cc3CCN2C1 (centres undefined),survivor count,"dose: 300.0 mg/kg/injection, schedule: Q01DX001 (ip), vehicle: saline",2 of 6
Cc1cc(CC(=S)[S-])[n+](C)c(CC(=S)S)c1,survivor count,"dose: 350.0 mg/kg/injection, schedule: Q01DX009 (ip), vehicle: Klucel (hydroxypropylcellulose) (HPC)",2 of 6
Cn1cnc([N+](=O)[O-])c1Sc1nc(N)nc2c1ncn2C1OC(CO)C(O)C1O (centres undefined),T/C,"dose: 2.2 mg/kg/injection, schedule: Q01DX Z (ip), vehicle: methylcellulose (MC)",142 % of control
same,T/C,"dose: 3.3 mg/kg/injection, schedule: Q01DX Z (ip), vehicle: methylcellulose (MC)",148 % of control
same,T/C,"dose: 5.0 mg/kg/injection, schedule: Q01DX Z (ip), vehicle: methylcellulose (MC)",148 % of control
same,T/C,"dose: 7.5 mg/kg/injection, schedule: Q01DX Z (ip), vehicle: methylcellulose (MC)",135 % of control
N#CC1(C#N)OC1c1ccccc1Cl (centres undefined),survivor count,"dose: 40.0 mg/kg/injection, schedule: Q04DX002 (ip), vehicle: Klucel (hydroxypropylcellulose) (HPC)",1 of 3
same,survivor count,[13],0 of 3
same,survivor count,"dose: 200.0 mg/kg/injection, schedule: Q04DX002 (ip), vehicle: Klucel (hydroxypropylcellulose) (HPC)",0 of 3
same,survivor count,"dose: 400.0 mg/kg/injection, schedule: Q04DX002 (ip), vehicle: Klucel (hydroxypropylcellulose) (HPC)",0 of 3
CC1(C)COP(Oc2ccccc2)OC1,survivor count,[8],6 of 6
O=C1NN(c2ccccc2)CCO1,survivor count,[11],0 of 6
CCCCCCCCC(=O)N1CCC(C)CC1,survivor count,[13],3 of 3
